Results on 54 compounds are retold here after PubChem BioAssay AID1458 (National Center for Advancing Translational Sciences (NCATS), 2008).

SMILES strings stand for the structures. In all, about 210,000 compounds went through this assay and about 5,900 (2.8%) were called active. Roughly 5% stayed inconclusive and do not appear here. The call rests on the fitted dose curve; in most records, active means well fitted activation curve with a large enough effect; inconclusive means small, poorly fitted or top-dose-only effect; inactive means no such curve, though single readings can be large or run the other way. The list shows a part of the results, in another mix than the full data. The source gives no active or inactive call for entries shown without one.
Potency means the concentration at half of the fitted maximal effect.

The nature of the experiment: qHTS Assay for Enhancers of SMN2 Splice Variant Expression. Further: nearly all actives have a fitted effect of over 55% in size. On activity change, positive = activation: % of control where 0% means no effect. The conditions noted are these: HEK293 SMN2-luciferase splicing reporter, luminescence, 30-36 h; activity change, positive = activation: at 46.1 µM (top of the series) unless noted. The source says: NIH Chemical Genomics Center [NCGC] NIH Molecular Libraries Probe Production centers Network [MLPCN] MLPCN Grant: R03 MH084179-01 Assay Submitter (PI): Elliot Androphy NCGC Assay Overview: Spinal muscular atrophy (SMA) is caused by insufficient levels of the survival motor neuron protein SMN. The SMN locus on chromosome 5q13 contains two inverted copies of SMN called SMN1 and SMN2 which are 99% identical at the amino acid level. SMN1 is a fully functional protein and SMN2 skips exon 7 90% of the time. Skipping of exon 7 produces non-functional protein product. 10% of the SMN2 protein includes exon 7 and is fully functional. In the SMA disease state, mutations in the SMN1 locus are the cause of the disease state. Because only 10% of SMN2 is of the fully functional form, it is not sufficient to overcome the deficiency produced by the loss of the SMN1 product. A therapy that either increase the amount of SMN2 product made or to increase the inclusion of exon 7 has been proposed for the treatment of SMA. We have designed an assay to identify small molecules that can increase the amount of functional SMN2 product by appending a luciferase reporter gene after the native SMN2 gene, such that inclusion of exon 7 in the expressed product places the luciferase sequence in frame, thus generating functional luciferase enzyme.
NCGC Assay Protocol Summary: This screen utilizes a luciferase reporter gene assay, combining the promoter and splicing based cassettes in tandem with the major portion of the native SMN2 cDNA, and then transfected into HEK293 cells. Compounds that increase luciferase signal presumably enhance expression of the functional SMN2 splice variant. Passaging media contained DMEM w/ glutamax (+phenol red) 10% FCS, 1x pen/strep, 200 ug/ml hygro, 1x sodium pyruvate. Assay media contained DMEM w/ glutamax (-phenol red) 10% FCS, 1x pen strep, 1x pyruvate Sequence, Parameter, Value, Description (1) Cells, […], 2000 cells/well, 1536 TC treated White solid bottom plate (2) Time, 10-12 hours, 37C 5% CO2 (3) Compound, 23 nl, MLSMR Library (4) Control Compound, 23 nL, Sodium butyrate st 4.5mM (final) conc (5) Time, 30-36 hours, 37C 5% CO2 (6) Reagent, 3 ul, One Glo (TM) from Promega (7) Time, 5-15 minutes, Room temp (8) Detector, Viewlux: luminescent read, 60 second integration, high speed 2x binning Keywords: Spinal muscular atrophy, SMA, SMN2, high throughput screening, MLSMR, MLPCN, NIH Roadmap, qHTS and NCGC
(In qHTS, concentration-response curves come from the screen itself.)
Consider `COCCN(C(=O)c1ccc2ccccc2c1)c1c(N)n(Cc2ccccc2)c(=O)[nH]c1=O`, for which the activity change, positive = activation is -32.2%.
As for `CN(C(=O)CCN1C(=O)C(C)(C)Nc2ccccc21)c1ccccc1`, the activity change, positive = activation was determined as 35.6%.
The same measure, in the same setting: in the case of `COc1cc(OC)nc(Oc2cc(/C=N/O)ccc2OC)n1` it was -13.7%; in that of `CCN(CC)C(=O)CSc1nc2ccccc2c(=O)n1-c1cccc(OC)c1`, 36.6%.
On the same count and under the same terms, in the case of `CC(c1ccco1)N(C(=O)c1ccccc1NS(=O)(=O)c1cc([N+](=O)[O-])ccc1Cl)c1ccccn1` (centres undefined) it was -52.5%.
Same read-out and setting: in the case of `CC1C/C(=C/c2ccncc2)C(=O)/C(=C/c2ccncc2)C1` (centres undefined) it was -104%; in that of `CCc1nonc1NC(=O)c1oc2ccccc2c1C`, 31.2%; in that of `c1ccc(-c2nnc(N3CCN(c4ccccn4)CC3)c3ccccc23)cc1`, -93.5%.
Consider `COc1ccc(-c2cc(C(F)(F)F)nc(SCC(=O)Nc3cc(C)on3)n2)cc1`, for which the activity change, positive = activation was found to be 48.3%.
Still for that read-out and setting: in the case of `CCNC(=O)N1CCNC(=O)C1CC(=O)OC` (centres undefined) it was 41.4%.
The same measure, in the same setting: under `C=CCc1cccc(/C=N/NC(=O)c2ccccc2OC)c1O` stands inactive: -102%; under `COC(=O)c1c(C)oc2ccc(N(C(=O)c3ccncc3)S(=O)(=O)c3ccc(C)cc3)cc12`, -64.1%; under `COc1ccc(Cn2nnnc2C(C(C)C)N2CCN(c3ccccc3OC)CC2)cc1` (centres undefined), -50.8%.
Take `Cc1cc(C)c(NC(=O)Cc2ccc(-n3cccc3)cc2)c(C)c1`: the activity change, positive = activation was 22.9%.
Take `COc1cccc(C(=O)/C=C2\Sc3ccccc3N2C)c1`: the Potency is active: 6.31 µM.
Consider `Cc1sc(NC(=O)c2ccccc2)c(C(c2ccccn2)N2CCN(CCO)CC2)c1C` (centres undefined), for which the activity change, positive = activation is -61.7%.
Still for that read-out and setting: under `O=C(CN1C(=O)COc2ccc(S(=O)(=O)N3CCOCC3)cc21)N1CCN(c2ccccc2)CC1` stands 24.4%; under `O=C(NCc1ccncc1)c1ccc(N2CCCC2)c([N+](=O)[O-])c1`, -46.1%.
On the same count and under the same terms, in the case of `O=S(=O)(c1cccc(-c2cn3cc(Cl)ccc3n2)c1)N1CCOCC1` it was 38.9%.
With `CN(C(=O)/C=C/c1ccccc1)C1CCS(=O)(=O)C1` (centres undefined), the activity change, positive = activation worked out at 11.2%.
Consider `CCOc1cc(/C=N/NC(=O)c2ccc(-c3csc(Nc4ccc(C)cc4)n3)cc2)ccc1OCC(=O)O`, for which the Potency is active: 12.6 µM.
Same read-out and setting: under `O=c1cc(-c2ccccc2)[nH]c2nc3ccccc3n12` stands active: 3.98 µM; under `Cc1cc(C)n2c(Br)c(CSc3nc4ccccc4s3)nc2n1`, active: 11.2 µM.
Take `Cn1nnnc1Sc1c(Cl)cccc1[N+](=O)[O-]`: the activity change, positive = activation is -27.1%.
As for `O=C(CCl)Nc1ccc(Oc2cnc3ccccc3n2)cc1`, the “activity change, positive = activation” value was inactive: -73.6%.
With `CCOC(=O)c1nn(-c2ccc3c(c2)CCN3C(C)=O)cc1O`, the Potency is active: 10 µM.
As for `CC(Oc1ccc(Cl)cc1Cl)c1nc(-c2ccc(NC(=O)c3ccncc3)cc2)no1` (centres undefined), the “activity change, positive = activation” value is inactive: -70.7%.
As for `COCCCN(C(C)=O)c1nc(-c2ccccc2)cs1`, the activity change, positive = activation stood at 90.3%.
Still for that read-out and setting: in the case of `CCOC(=O)CSc1nnc(Cn2nnc(-c3ccccc3)n2)n1C` it was 61.2%; in that of `O=c1[nH]nc(Cc2ccccc2)c2ccccc12`, 37.6%; in that of `O=c1c(N2CCCCC2)coc2ccccc12`, 38%.
For `Cc1cc(C(=O)COC(=O)c2n[nH]c3ccccc23)c(C)n1CC1CCCO1` (centres undefined), the “activity change, positive = activation” value is inactive: -34.2%.
Still for that read-out and setting: in the case of `NNC(=O)c1cnn(-c2ccccc2)c1-n1cccc1` it was inactive: -51.7%; in that of `O=C1NN(c2ccccc2)C(=O)/C1=C/c1ccc(Sc2cccc3ccccc23)o1`, 30.7%.
On the same count and under the same terms, in the case of `CC(C)(C)NC(=O)NC(=O)CSc1nnc(COc2ccccc2Cl)o1` it was inactive: 13.5%; in that of `CCC(C)(C(=O)NC1CCCC1)N(C(=O)CNC(=O)c1ccccc1)c1c(C)n(C)n(-c2ccccc2)c1=O` (centres undefined), -30%.
For `Cc1ccc(NC(=S)NNC(=O)c2ccco2)cc1`, the Potency is active: 11.2 µM.
Turning to `COc1ccc(NC(=O)C2CCC(CNc3c(N4CCC(C)CC4)c(=O)c3=O)CC2)cc1OC` (centres undefined), the activity change, positive = activation amounted to 35.4%.
On the same count and under the same terms, in the case of `Cc1ccc(N(Cc2ccco2)C(=O)c2cccc(S(=O)(=O)N(C)C)c2)cc1` it was 34.8%.
With `Cc1ccc(/C=C/C(=O)Nc2ccc(Oc3ccccc3)cc2)o1`, the “activity change, positive = activation” value was inactive: -46.6%.
Turning to `COc1ccc(-c2cc(=Nc3ccc(C(=O)O)cc3)c3cc(C)ccc3o2)cc1`, the Potency was active: 17.8 µM.
In the case of `COc1cccc(NC(=O)c2cc3c(-c4ccc(Cl)cc4)nn(C)c3s2)c1`, the activity change, positive = activation is 28.9%.
On to `Cc1cc(O)ccc1N/C=C/c1onc(C)c1[N+](=O)[O-]`, for which the Potency is active: 20 µM.
As for `O=C(CN1C(=O)c2ccccc2S1(=O)=O)NCCSC1CCCCC1`, the activity change, positive = activation worked out at 31.6%.
The same measure, in the same setting: under `Cc1ccc(C(C)C)c(OCCn2c(=O)oc3ccccc32)c1` stands -37.4%.
Same read-out and setting: in the case of `CCCC(=O)CN1C(=O)C2(OCCO2)c2ccccc21` it was 46.7%; in that of `Cc1nnc2sc(SCC(=O)Nc3ccc(Br)cc3)nn2c1=O`, 49.6%; in that of `Cc1ccc(-c2nc(C=Nc3ccccc3)c(O)o2)cc1`, 1.27%.
On the same count and under the same terms, under `Cc1ccccc1-n1nc(CO)c(C(=O)NCC(c2ccccc2)c2ccccc2)n1` stands inactive: -69.1%.
With `CCOC(=O)C(CC)n1nc(C)c2c(C)n(-c3ccc(C)cc3)nc2c1=O` (centres undefined), the “activity change, positive = activation” value is inactive: -49.4%.
`CC1CCC(NC(=O)CC(C)(C)Cc2nc3ccccc3c(=O)[nH]2)CC1` (centres undefined): the activity change, positive = activation was -53.7%.
The same measure, in the same setting: under `COc1ccc(-c2cc(NCCc3ccncc3)n3ncnc3n2)cc1` stands 34.1%.
Same read-out and setting: under `CCCCC[n+]1ccn(C2=C([O-])c3ccccc3C(=O)/C2=N\S(=O)(=O)c2ccccc2)c1` stands -34.3%; under `Cn1c(CCNC(=O)c2ccco2)nc2cc(NS(=O)(=O)c3ccccc3)ccc21`, -37.6%.
